According to PubChem BioAssay AID1347423 (Functional Genomics Laboratory (NCATS/FGL), 2020):
In all, about 52,000 sequences went through this assay and about 210 (0.4%) were called active.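 Rule for the calls: active = gene whose silencing raises cell survival under the drug, median off-target-corrected z-score across its silencing RNAs 2 or more; inactive = the rest.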 The list shows a part of the results.

Experiment: Resistance to Poly (ADP-Ribose) Polymerase inhibitor: Gene Identification via Genome-wide siRNA Screen
Conditions: mouse BRCA2 R2336H ES cells, olaparib, CellTiter-Glo viability; stronger effect = higher value
Method in brief: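 Mouse BRCA2 R2336H ES cells were reverse-transfected with siRNA (20 nM final), treated at 48 h with 500 nM olaparib, and read by CellTiter-Glo after 72 h. Scores: MAD-based z per siRNA, median per gene, seed off-target correction.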
In the case of GCUACUCCAUUUACAUCUATT against Hist1h2ba, the z-score is reported as inactive: 0.249. In the case of “GGAAAGAUUUUCAUUUGAGTT against B930008K04Rik”, the z-score is reported as inactive: 0.305. In the case of GGAUGGUGCAUACCUCUUCTT against Axin2, the z-score is reported as inactive: -0.734. In the case of “GGCAACUUCACAACAUGCCTT against A930017K11Rik”, the z-score is reported as inactive: 3.19. With “GGGAAACAAACAGAAGAACTT against B230363K08Rik” the z-score was inactive: 1.28. With GGAAAAAAACUUGCUGGAUTT against Ppp3ca the z-score was inactive: 2.12. In the case of CCUGUAGCUAGCUUCUAGGTT against Adamts10, the z-score is reported as inactive: 0.402. For GGAUAUUGCCAGUAAUUAATT against Kif21a, the z-score was inactive: -0.391. For GGUUCAUGAAUGACAAACUTT against Sult4a1, the z-score was inactive: 0.762. For GGUGCUGGAGAACAUUCUATT against Angpt2, the z-score was inactive: -1.91. With GGCGAAAAAGAACUUCUCCTT against Prrx1 the z-score was inactive: -1.45. With GCUAUUCAAUCUGAGGAAATT against Olfr1278 the z-score was inactive: -0.604. In the case of GGAAAGAAAUGCUGAAAAUTT against Atp2a2, the z-score is reported as inactive: -1.74. With CCUAGUGUUAGAACAGAUCTT against Zmynd10 the z-score was inactive: 0.961. For GGAAACACACUGGUUCUGATT against Il6ra, the z-score was inactive: -0.628. For GGGCUACACAAAAUUUUAATT against Cxcl11, the z-score was inactive: 0.842. In the case of GCAUCGAUCUUUAUACACUTT against Arhgef12, the z-score is reported as inactive: 0.838. For GGACUGUCUGAUGUCAAAGTT against Synpr, the z-score was inactive: 1.02. For “CCUUAAACUUGGCCGAGGUTT against 0610038D11Rik”, the z-score was inactive: -1.02. With GGAACUUGGGCAUUCCAGATT against Adck2 the z-score was inactive: 0.757. For GGAGUCGUUUAAGCUUUAATT against Atbf1, the z-score was inactive: 0.404. With GGGCAUUUUUACAGUUUUCTT against Chfr the z-score was inactive: -0.137. With CCACCAUUCGGCUCUUUUGTT against Nupl2 the z-score was inactive: 1.55. For “GGGUCAUGUAACUAGUAUATT against 1810034M08Rik”, the z-score was inactive: 0.158. In the case of CGGUUACUUCAGAAAUCUATT against Tlr5, the z-score is reported as inactive: 0.417. With GGAUCCUGAACAUAUGAAUTT against D4st1 the z-score was inactive: 0.814. For GUGCUAUACUCGGUCGUCATT against MOR253-5, the z-score was inactive: -1.56. In the case of GGACGAUUUAAGGAUUUUUTT against Tes3, the z-score is reported as inactive: 1.14. In the case of GCCCUUGUGAUUCGAAAUGTT against Atp1a1, the z-score is reported as inactive: -0.422. With GGGAAAGUCAGUUUAAAGATT against Baz1b the z-score was inactive: 0.306. For GGACAAUUGGGCCAAACUGTT against Mpv17, the z-score was inactive: 0.561. With GCAGUGUCUAGGACAGUCATT against Pdcd5 the z-score was inactive: -0.0804. In the case of GGGUGAUGCCCUUGAAUCUTT against Ptk9l, the z-score is reported as inactive: 2.23. For “GGAUUCACGAGCAUAAGCUTT against 1700020D05Rik”, the z-score was inactive: 0.831. In the case of GCCAGUAAUCCAUACCGUGTT against C6, the z-score is reported as inactive: 0.175. In the case of GGAGAAGCAGCAACAGCUATT against Asgr2, the z-score is reported as inactive: -0.189. With GGCUGUGAAGCUUACCAGCTT against Tm9sf4 the z-score was inactive: 0.639. For “GGACCAUACAAUGAUUCUATT against B930008K04Rik”, the z-score was inactive: 0.27. In the case of GGUCAUAGAUAACACGCUCTT against Cpne5, the z-score is reported as inactive: 2.22. For GGAGGAAGCUGUCAAGGAUTT against AU040576, the z-score was inactive: -1.64. With CGAGGUCAUCAUCAUCGAATT against Ccbl1 the z-score was inactive: 0.509. For GCCUUCCAGUCAGUGAAAUTT against Foxn1, the z-score was inactive: 0.346. For GCGCAACAGGAUUCAGCUATT against Csmd1, the z-score was inactive: 1.27. In the case of GUCUUCAUACUCCAAUGUATT against Olfr878, the z-score is reported as inactive: -0.919. For GGCUUUUGAUGAGGUAAAATT against AI840980, the z-score was inactive: 1.63. In the case of GGGAGCAUCAGUUAAUUUUTT against Yes, the z-score is reported as inactive: -0.0597. With GGACCUGUAUUCUCAGGGATT against Sprrl2 the z-score was inactive: -0.501. In the case of GGAAAAGGAAAGGACUAAGTT against Mdk, the z-score is reported as inactive: 0.665. In the case of GCAUGUAGUAUGGUAACACTT against Akr1b7, the z-score is reported as inactive: -0.975. With GGAUCUGAAAGAUCAGAUUTT against Lmnb1 the z-score was inactive: 0.337. In the case of UAUUGUUCACUGCACUGUATT against Leftb, the z-score is reported as inactive: 0.106. With GGAAGAAGAAGGAAGAUGATT against Cfdp1 the z-score was inactive: -2.45. For “GGAUACCUAUCUGCACUUCTT against 1700049K14Rik”, the z-score was inactive: 0.472. With UUGGUUCAACCUCAUCAUATT against Olfr869 the z-score was inactive: 0.227. For GGGAUUUGUUACCCUCCUCTT against Eppb9, the z-score was inactive: -1.99. For CGAUCUAGUCAACAUCAAATT against Fcer2a, the z-score was inactive: 0.729. In the case of GGAACUACAGAAUUUAUUGTT against Rfxdc1, the z-score is reported as inactive: 2.05. In the case of GGACUUCCAUAAGAUGAAATT against Nrap, the z-score is reported as inactive: -0.474. With GGGAUAAGACAGGAGACUUTT against Slc16a11 the z-score was inactive: -1.14. With CCCUUAAGUCUUUUUCCUATT against Cugbp2 the z-score was inactive: 0.709. For GGCUUCCAAGCCUAAAGCUTT against Hist1h1d, the z-score was inactive: -1.06. With AUAAAAGUGACUCACCAACTT against A4galt the z-score was inactive: 1.74. In the case of GGACUGAUUCGUCUAAUACTT against Ckap2, the z-score is reported as inactive: -1.52. With GCCAGGUUUACCUAAGAGGTT against Rhog the z-score was inactive: -0.0106. In the case of GGCGACUUAUUAAAAUCCUTT against Fads3, the z-score is reported as inactive: 0.648. For GGACUUGCGCGACAAGAUUTT against Krt1-19, the z-score was inactive: -0.646. In the case of GGUACAGGUUGGCAUUGAUTT against Aasdhppt, the z-score is reported as inactive: 2.06. In the case of “GGAGAAAGAAUCUGAAAAUTT against 4922504H04Rik”, the z-score is reported as inactive: -3.21. In the case of GGACAAACUCUUGCUCUCCTT against Chpt1, the z-score is reported as inactive: -0.688. For GGAGAGUACUGCCAGACUCTT against Ring1, the z-score was inactive: 0.394. With GGAUAUCUCACUGCUUUUATT against Mpp5 the z-score was inactive: 0.482. With “GGUUGAAGAGCAUGAGAGCTT against A330041J22Rik” the z-score was inactive: 0.0833. In the case of GGCCGAACCAUCUCAUACCTT against Olfr976, the z-score is reported as inactive: 1.19. In the case of “GGCUCCUAACUCACUGGGATT against C730042F17Rik”, the z-score is reported as inactive: -0.787. In the case of “GGAGGUUAAGAGAUCUCCATT against 2410042D21Rik”, the z-score is reported as inactive: 0.663. In the case of GCUAUUGGGACUUAGAACATT against Slc26a9, the z-score is reported as inactive: -0.56. With CGAAGACCCUCAUAUAGAATT against Crem the z-score was inactive: -0.238. With GGAUGGAAAAUAAAACAGGTT against Hoxb7 the z-score was inactive: -0.802. In the case of GCCUAUACUAUAGAAUUACTT against Rutbc1, the z-score is reported as inactive: 1.92. For “GGAGGAUCUUGAGUUGGAGTT against 4930579G22Rik”, the z-score was inactive: -1.52. For CUUACAGUUGCGUCCACUGTT against Ypel4, the z-score was inactive: -1.37. In the case of CCUACAACAGAUGUGCAGCTT against BC017647, the z-score is reported as inactive: -0.88. With GGUGAACGAUGUCAAUAAGTT against Pdxk the z-score was inactive: -0.0358. For GGAGUCCUAUGUGCUGAAATT against Treml4, the z-score was inactive: 0.638. In the case of GUUCCCAAAGUCUCAUGUUTT against Mef2b, the z-score is reported as inactive: -0.679. In the case of GCAUCCCAGAUAUUGAGCATT against Arrdc1, the z-score is reported as inactive: 0.319. In the case of GGUGUUGUGCACAUAUAUGTT against Tom1l2, the z-score is reported as inactive: -0.359. With CCACCUGUCGAGAUGUCGUTT against Ppp1r13b the z-score was inactive: 0.0805. For CCAACACCUAAUAUUACUCTT against Lrig2, the z-score was inactive: 1.05. With GGUAGAGCCUGACAUCAACTT against Ppp2r3a the z-score was inactive: 0.506. In the case of GGUCGAUAUAAUCCUAGAGTT against Chrna5, the z-score is reported as inactive: -0.793. In the case of GCCAUACGCUGACCUUUCATT against Sp7, the z-score is reported as inactive: 3. In the case of GGGUGAUUUCUAUUCACUATT against Pam, the z-score is reported as inactive: 0.47. With GGAAUUCAGCGAUUUAUACTT against Smox the z-score was inactive: 1.41. For “GGUCACGUCAGCAAAGCAATT against B930095G15Rik”, the z-score was inactive: -0.384. In the case of GCCACAAGUAGUUGUGGUATT against Akr1c20, the z-score is reported as inactive: 0.699. With GGACCCUCUGGAUUAAUCGTT against Mrpl20 the z-score was inactive: 1. In the case of GGAAUUGGGUAGUACAAAATT against Irak1, the z-score is reported as inactive: 0.537. In the case of “GGAAGAUCCCAGAAUUAACTT against 3110038B19Rik”, the z-score is reported as inactive: 0.715. For “CCCUAUUAGUGGAAGCAUGTT against 6720487G11Rik”, the z-score was inactive: 0.0848. For GGAAAAAGAGAAGACCUGCTT against AI836376, the z-score was inactive: -0.178. In the case of CGAUCCAUUUCCUUACGACTT against Cyp20a1, the z-score is reported as inactive: -0.493. In the case of GGACAUCAACAUUAUCACUTT against Chn1, the z-score is reported as inactive: 0.269. For GGCAAAAUAAGGAGCUAGATT against Itpkc, the z-score was inactive: 0.618. For CGAAUGUUCGAGGUUUAUUTT against Ctdspl, the z-score was inactive: 1.27.
